Here are results for three molecules from US12378320B2, “Methods for treating pancreatitis” (Cold Spring Harbor Laboratory, priority 2018, dated 2025).

The subject of the data set is CA19-9 modified proteins. Kind of data set: CA19-9 IP/MS (iTRAQ) of organoid conditioned media after Dox treatment. On the set-up: species or system mouse. The conditions noted are these: for 17 0H NS19: relative abundance, reference channel.
Where [1] appears, read: A217 (genetic negative) organoids conditioned media, after 8 hours of treatment, CA19-9 IP with 5B1, relative to 17 0H NS19.
[2] abbreviates: A217 (genetic negative) organoids conditioned media, after 8 hours of treatment, CA19-9 IP with NS19-9, relative to 17 0H NS19.
The mark [3] stands for this setting: A217 (genetic negative) organoids conditioned media, before treatment (0H), CA19-9 IP with NS19-9.
Where [4] appears, read: A220 (C;R^LSL;F) organoids conditioned media, before treatment (0H), CA19-9 IP with 5B1, relative to 17 0H NS19.

B1: Q6P5F9 (protein, UniProt Q6P5F9 1-1071, looked up)
chain: MPAIMTMLADHAARQLLDFSQKLDINLLDNVVNCLYHGEGAQQRMAQEVLTHLKEHPDAWTRVDTILEFSQNMNTKYYGLQILENVIKTRWKILPRNQCEGIKKYVVGLIIKTSSDPTCVEKEKVYIGKLNMILVQILKQEWPKHWPTFISDIVGASRTSESLCQNNMVILKLLSEEVFDFSSGQITQVKAKHLKDSMCNEFSQIFQLCQFVMENSQNAPLVHATLETLLRFLNWIPLGYIFETKLISTLIYKFLNVPMFRNVSLKCLTEIAGVSVSQYEEQFETLFTLTMMQLKQMLPLNTNIRLAYSNGKDDEQNFIQNLSLFLCTFLKEHGQLLEKRLNLREALMEALHYMLLVSEVEETEIFKICLEYWNHLAAELYRESPFSTSASPLLSGSQHFDIPPRRQLYLTVLSKVRLLMVSRMAKPEEVLVVENDQGEVVREFMKDTDSINLYKNMRETLVYLTHLDYVDTEIIMTKKLQNQVNGTEWSWKNLNTLCWAIGSISGAMHEEDEKRFLVTVIKDLLGLCEQKRGKDNKAIIASNIMYIVGQYPRFLRAHWKFLKTVVNKLFEFMHETHDGVQDMACDTFIKIAQKCRRHFVQVQVGEVMPFIDEILNNINTIICDLQPQQVHTFYEAVGYMIGAQTDQTVQEHLIEKYMLLPNQVWDSIIQQATKNVDILKDPETVKQLGSILKTNVRACKAVGHPFVIQLGRIYLDMLNVYKCLSENISAAIQANGEMVTKQPLIRSMRTVKRETLKLISGWVSRSNDPQMVAENFVPPLLDAVLIDYQRNVPAAREPEVLSTMAIIVNKLGGHITAEIPQIFDAVFECTLNMINKDFEEYPEHRTNFFLLLQAVNSHCFPAFLAIPPAQFKLVLDSIIWAFKHTMRNVADTGLQILFTLLQNVAQEEAAAQSFYQTYFCDILQHIFSVVTDTSHTAGLTMHASILAYMFNLVEEGKISTPLNPGNPVNNQMFIQDYVANLLKSAFPHLQDAQVKLFVTGLFSLNQDIPAFKEHLRDFLVQIKEFAGEDTSDLFLEERETALRQAQEEKHKLQMSVPGILNPHEIPEEMCD
modifications: full-length
B1: the “17 8H 5B1” value under setting [1] is reported as 1.927. Moreover, under setting [2], the “17 8H NS19” value is recorded as 0.494. The “17 0H NS19” value under setting [3] is given as 1. Under setting [4], the “20 0H 5B1” value came to 1.524.

B2: P62715 (protein, UniProt P62715 1-309, looked up)
chain: MDDKAFTKELDQWVEQLNECKQLNENQVRTLCEKAKEILTKESNVQEVRCPVTVCGDVHGQFHDLMELFRIGGKSPDTNYLFMGDYVDRGYYSVETVTLLVALKVRYPERITILRGNHESRQITQVYGFYDECLRKYGNANVWKYFTDLFDYLPLTALVDGQIFCLHGGLSPSIDTLDHIRALDRLQEVPHEGPMCDLLWSDPDDRGGWGISPRGAGYTFGQDISETFNHANGLTLVSRAHQLVMEGYNWCHDRNVVTIFSAPNYCYRCGNQAAIMELDDTLKYSFLQFDPAPRRGEPHVTRRTPDYFL
modifications: full-length
As for B2, under setting [1], the “17 8H 5B1” value is listed as 3.071. Further, under setting [2], the “17 8H NS19” value is 0.814. For the same molecule, the “17 0H NS19” value under setting [3] is 1. Besides, the “20 0H 5B1” value under setting [4] is on record as 2.716.

B3: Q3UV17 (protein, UniProt Q3UV17 1-594, looked up)
chain: MSRQACKKSFSCGSQGFSGHSAVVSGSSRSSCVARSGAASGGACGFRSGAGSLGSHSLYSLGGSKSISISVAAGGSRAGGFSGGRSSCGSGFGSGYGGSLGGSRGMGAGFGGPSGFGGAGGFGRPGSFGPGSCPGGIQEVTINQSLLQPLNVEIDPQIGQVKAQEREQIKTLNNKFASFIDKVRFLEQQNKVLETKWELLQQQTIRSGSGPQNLEPFFESYISCLRKQLDSLLGAKGSLEGELKSMQDLVEDFKKKYEEEINRRTAAENEFVGLKKDVDGAFMNKVELQAKVDSLTDEINFLRTLYDMELSQIQSHVSDTSVVLSMDNNRCLDLDSIIAEVKAQYEDIAQKSKAEAEALYQTKLGELQTTAGRHGDDLRSTKSEIMDLNRMIQRLRAEIENVKKQNTNMQTSIAEAEQRGERALKDADTKFQDLQVALQKAKEDMARLLKEYQELMNVKLALDVEIATYRKLLEGEECRLSGEFQNAVSISVVSNVTSTSSSGSFRGTGGSNYGGDSSGRSGGSSSSSSRGSSSRGSSGSRLGSGGSISVSQQRMGFNSGGSQTSVGSSYKSGRGGSSSVQFSQTTSSSQQRSK
modifications: full-length
For B3, the “17 8H 5B1” value (CA19-9 IP/MS relative abundance, A217 (genetic negative) organoid conditioned media, after 8 hours, IP with 5B1) is listed as 0.725. Under “CA19-9 IP/MS relative abundance, A217 (genetic negative) organoid conditioned media, after 8 hours, IP with NS19-9”, the “17 8H NS19” value is listed as 1.383. For the same molecule, under “CA19-9 IP/MS relative abundance, A220 (C;R^LSL;F) organoid conditioned media, 0H (before treatment), IP with 5B1”, the “20 0H 5B1” value came out at 1.003.
